# Data reported in article PMC12670160, “A drug-repurposing screen of FDA- and EMA-approved drugs identifies two NF-κB inhibitors active against eumycetoma” (Journal of Antimicrobial Chemotherapy, 2025).
# Where a name gives a salt, the structure may show the parent alone. In all, about 5,300 compounds went through this assay and about 130 (2.5%) showed an effect of 50% or more. This is one part of the list.
# Tested on: M. mycetomatis strain mm55
# Conditions: primary screen, metabolic activity vs growth control; 96 h, 2 µM; inhibitor
row,Structure (SMILES),% viability [%]
1,"NC(=O)OCC(COC(N)=O)c1ccccc1 [ONC0001418, felbamate]",64.05
2,"COC(=O)Nc1nc2cc(SC(C)C)ccc2[nH]1 [ONC0002907, methiazole]",79.6
3,"[O-][n+]1cccc(CO)c1 [ONC0002748, mepiroxol]",76.99
4,"OC(CC1c2ccccc2-c2cncn21)C1CCCCC1 (stereo not drawn) [ONC0005143, nlg919]",124.3
5,"CC1=CC(=C(c2ccc(N)cc2)c2ccc(N)cc2)C=CC1=N [ONC0002809, basic fuchsin]",79.53
6,"CN1CCC(Nc2ncc3ncnc(Nc4ccc(F)c(Cl)c4)c3n2)CC1 [ONC0003553, bibx1382]",119.2
7,"COC(=O)Nc1ccc(-c2nc(N3CCOCC3)c3cnn(C4CCN(C(=O)OC)CC4)c3n2)cc1 [ONC0004862, wye354]",106.5
8,"COC(=O)N[C@H](C(=O)N[C@@H](Cc1ccccc1)[C@@H](O)CN(Cc1ccc(-c2ccccn2)cc1)NC(=O)[C@@H](NC(=O)OC)C(C)(C)C)C(C)(C)C [ONC0004590, atazanavir sulfate]",85.69
9,"C[C@@H]1O[C@@H](O[C@@H]2[C@H](Oc3cc(O)c(C(=O)CCc4ccc(O)cc4)c(O)c3)O[C@H](CO)[C@@H](O)[C@@H]2O)[C@H](O)[C@H](O)[C@H]1O [ONC0005050, naringin dihydrochalcone naringin dc]",103
10,"CNC[C@H](O)[C@@H](O)[C@H](O)[C@H](O)CO [ONC0003260, meglumine]",54.44
11,"Nc1ccc(S(=O)(=O)Nc2cnc3ccccc3n2)cc1 [ONC0000645, sulfaquinoxaline sodium]",110.7
12,"CO[C@@H]1[C@H](OC(=O)NC(=O)CCl)CC[C@]2(CO2)[C@H]1[C@@]1(C)O[C@@H]1CC=C(C)C [ONC0005625, tnp470]",99.97
13,"N#CC(c1ccnc(OCc2ccc(CN3CCOCC3)cc2)n1)c1nc2ccccc2s1 (stereo not drawn) [ONC0002169, bentamapimod]",73.2
14,"CCOC(=O)[C@H](C)C[C@@H](Cc1ccc(-c2ccccc2)cc1)NC(=O)CCC(=O)O [ONC0001801, sacubitril hemicalcium salt]",87.87
15,"CC(=O)Oc1ccccc1C(=O)Oc1ccccc1C(=O)O [ONC0002931, acetylsalicylsalicylicacid]",83.85
16,"Cc1cc(O)c(C(C)C)cc1Cl [ONC0003772, chlorothymol]",114.7
17,"N[C@H](C(=O)O)[C@@H]1CC(Cl)=NO1 [ONC0005468, acivicin]",102.3
18,"O=c1[nH]cnc2c1cnn2[C@@H]1O[C@H](CO)[C@@H](O)[C@H]1O [ONC0003692, allopurinol riboside]",73.69
19,"CCOC(=O)[C@H](CCc1ccccc1)N[C@@H](C)C(=O)N(CC(=O)O)C1Cc2ccccc2C1 [ONC0003416, delapril hcl]",98.59
20,"CCc1cc(O)c(Oc2ccc(C(N)=O)cc2F)cc1F [ONC0000978, mut056399]",79.67

# Part of the list above in another layout.
row	Structure (SMILES)	% viability [%]
9	C[C@@H]1O[C@@H](O[C@@H]2[C@H](Oc3cc(O)c(C(=O)CCc4ccc(O)cc4)c(O)c3)O[C@H](CO)[C@@H](O)[C@@H]2O)[C@H](O)[C@H](O)[C@H]1O [ONC0005050, naringin dihydrochalcone naringin dc]	103
10	CNC[C@H](O)[C@@H](O)[C@H](O)[C@H](O)CO [ONC0003260, meglumine]	54.44

# Next part

row,Structure (SMILES),% viability [%]
1,"O=C(NC1CCC1)c1ccc(C#Cc2cccc(F)c2)nc1 [ONC0001908, vu0360172]",80.38
2,"C[C@H]1c2cccc(O)c2C(=O)C2C(=O)[C@]3(O)C(=O)C(C(N)=O)C(=O)[C@@H](N(C)C)[C@@H]3[C@@H](O)[C@@H]21 (stereo partly drawn) [ONC0000682, doxycycline hydrochloride]",94.49
3,"C[C@H](Cn1cnc2c(N)ncnc21)OCP(=O)(O)O [ONC0000472, tenofovir]",92.43
4,"CNC(=O)c1c(I)c(C(=O)NCC(=O)Nc2c(I)c(C(=O)O)c(I)c(C(=O)NCCO)c2I)c(I)c(N(C)C(C)=O)c1I [ONC0002924, ioxaglicacid]",70.63
5,"CCCCNc1cc(C(=O)O)cc(S(N)(=O)=O)c1Oc1ccccc1 [ONC0000694, bumetanide]",95.54
6,"CCO[C@@H](Cc1ccc(OCCc2ccc(OS(C)(=O)=O)cc2)cc1)C(=O)O [ONC0003810, tesaglitazar]",59.12
7,"C=CCN1C[C@H](C)N([C@H](c2ccc(C(=O)N(CC)CC)cc2)c2cccc(OC)c2)C[C@H]1C [ONC0000799, snc80]",64.2
8,"CC(C)(C)c1ccc(C(=O)CCCN2CCC(OC(c3ccccc3)c3ccccc3)CC2)cc1 [ONC0004504, ebastine]",69.16
9,"COc1ccc2[nH]c(-c3ccccc3)c(CCNC(C)=O)c2c1 [ONC0003628, 2phenylmelatonin]",93.21
10,"CC1(C)CC[C@]2(NC(=O)C(C)(F)F)CC[C@]3(C)[C@H](C(=O)C=C4[C@@]5(C)C=C(C#N)C(=O)C(C)(C)[C@@H]5CC[C@]43C)[C@@H]2C1 [ONC0004376, omaveloxolone rta408]",135.7
11,"CCCCCC(O)c1cccc(OCc2ccc3ccccc3n2)c1 (stereo not drawn) [ONC0005481, rev5901 l655238]",92.78
12,"CC[C@H](NC(=O)c1c(O)c(-c2ccccc2)nc2ccccc12)c1ccccc1 [ONC0001800, talnetant]",107.6
13,"O=c1ccn([C@@H]2O[C@H](CO)[C@@H](O)[C@H]2O)c(=O)[nH]1 [ONC0004405, uridine]",127.6
14,"O=C1Nc2c(ccc(Cl)c2Cl)C1=NO [ONC0002536, ns309]",65.12
15,"O=[N+]([O-])O[C@@H]1CO[C@H]2[C@@H]1OC[C@@H]2O [ONC0002345, isosorbide mononitrate]",104
16,"COc1ccc2c(c1)-c1nn(CCCN(C)C)c3ccc([N+](=O)[O-])c(c13)N2 [ONC0005428, pyrazoloacridine]",140.4
17,"O=C(NCCCN1CCCCCC1)C(c1ccccc1)C1CCCCC1 (stereo not drawn) [ONC0000015, mr16728]",94.36
18,"O=C(NO)c1cnc(N2CCN(S(=O)(=O)c3ccc4ccccc4c3)CC2)nc1 [ONC0003397, r306465]",66.28
19,C[C@@H](c1nc(-c2ccc(C#N)cc2)cs1)[C@](O)(Cn1cncn1)c1cc(F)ccc1F [Isavuconazole],3.591
20,"Cc1nc2cc(-n3ncc(C(=O)c4cc5ccccc5[nH]4)c3N)ccc2[nH]1 [ONC0004455, ch5183284 debio1347]",110.2

row,Structure (SMILES),% viability [%]
1,"CS(=O)(=O)c1ccc(-c2cnc(NCc3ccco3)n3cnnc23)cc1 [ONC0002272, eed226]",58.08
2,"O=C1NC(=O)c2c1c1c3ccccc3n3c1c1c2c2ccccc2n1C1CCC3O1 [ONC0001372, sb218078]",97.11
3,"COC(=O)C(Cc1ccc(OCCn2c(=O)sc3cc(C(=O)c4ccccc4)ccc32)cc1)C(=O)OC [ONC0000904, s26948]",86.12
4,"COc1cccc2cc(-c3nc([C@H]4CC[C@H](C(=O)O)CC4)n4ncnc(N)c34)[nH]c12 [ONC0005044, osi027]",67.14
5,"CC(C)=CCC[C@](C)(O)[C@@H]1CC=C(C)CC1 [ONC0002132, levomenol]",73.6
6,"N[C@@H](C(=O)O)c1ccc(C(=O)O)c(C(=O)O)c1 [ONC0001521, 34dcpgr]",108.8
7,"CCn1nc(C2CCN(C(=O)CCO)CC2)nc1-c1cnc(N)c(-c2nnc(C(C)(C)C)o2)n1 [ONC0000975, azd8835]",76.93
8,"O=C(Nc1ccccc1)N1CCC(Cc2cnc3ccccc3c2)CC1 [ONC0000229, pf750]",105.3
9,"Cc1c(C)c2c(c(C)c1O)CCC(C)(C(=O)O)O2 (stereo not drawn) [ONC0003486, trolox]",64.78
10,"N=C(N)NN [ONC0005358, pimagedine hydrochloride]",81.59
11,"FC(F)(F)C(F)(F)C(F)(F)N(C(F)(F)C(F)(F)C(F)(F)F)C(F)(F)C(F)(F)C(F)(F)F [ONC0003646, perfluorotripropylamine]",72.65
12,"CC[C@H](C)C(=O)O[C@H]1C[C@@H](C)C=C2C=C[C@H](C)[C@H](CC[C@@H]3C[C@@H](O)CC(=O)O3)[C@H]21 [ONC0002444, lovastatin]",92.72
13,"CCO[C@H]1O[C@@H]2O[C@@]3(C)CC[C@H]4[C@H](C)CC[C@@H]([C@H]1C)[C@@]24OO3 [ONC0001164, artemotil]",106.6
14,"Clc1ccc(C(Cn2ccnc2)OCc2ccc(Sc3ccccc3)cc2)c(Cl)c1 (stereo not drawn) [ONC0004926, fenticonazole nitrate]",131.8
15,"O=C(CCBr)N1CC[N+]2(CC1)CC[N+]1(CCN(C(=O)CCBr)CC1)CC2 [ONC0002743, 312bis3bromopropanoyl312diaza69diazoniadispiro5252hexadecane dichloride dichloride]",88.14
16,"CCN(CC)CCOC(=O)c1ccc(N)cc1 [ONC0000447, procaine hydrochloride]",88.33
17,"CC1(c2ccccc2)OC(C(=O)O)=CC1=O (stereo not drawn) [ONC0001728, acifran]",66.2
18,"O=c1cc(-c2ccccc2)oc2cc(O)c(O)c(O)c12 [ONC0001603, baicalein]",81.41
19,"CN1CCN(c2ccc(Nc3ncc4cc(C#N)c(=O)n(C5CCCC5)c4n3)cc2)CC1 [ONC0001086, on123300]",53.59
20,"CC(C)(Oc1ccc(Cl)cc1)C(=O)N1CSCC1C(=O)O (stereo not drawn) [ONC0003754, timofibrate]",102.1
